Hit rate of the full screen: of about 330,000 compounds, about 7,700 (2.3%) were called active. The inconclusive results got no clear call from the source; some entries with a clear call stand among them for comparison. Calls follow the shape of the dose curve; as a rule, active = well fitted inhibition curve with a large enough effect; inconclusive = small, poorly fitted or top-dose-only effect, or effect the other way; inactive = flat fitted curve, though single readings scatter. Where the call is inconclusive, the potency comes from a doubtful curve fit.
Assay: qHTS screen for small molecules that inhibit ELG1-dependent DNA repair in human embryonic kidney (HEK293T) cells expressing luciferase-tagged ELG1; also: nearly all actives have a fitted effect of over 55% in size
Settings: HEK293T ELG1-luciferase reporter, luminescence, 16 h, DNA damage induced by 5-fluorouridine; activity change, negative = inhibition: at 46.1 µM (top of the series)
In short: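 Luminescence from the luciferase reporter, measured 30 min after ONE-Glo reagent at room temperature, was the read-out. Beforehand, 2,000 cells per well were exposed for 16 hr at 37 °C to 5-fluorouridine together with compound or vehicle.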
% is scaled to controls: 0 for no effect and ±100 for the full control effect; potency is read from the fitted curve at half-maximal effect.

Compound	Potency	activity change, negative = inhibition
Cc1sc2c(c1C)C(O)=C(C(=O)Nc1ccccc1)S(=O)(=O)N2C	inconclusive: 29.1 µM [inhibitor, single point]	
COc1ccc(C=NC(CO)C(O)c2ccc([N+](=O)[O-])cc2)cc1 (stereo not given)	inconclusive: 35.5 µM [activator, single point]	
CCOC(=O)N1CCN(c2ccc(O)cc2)CC1	inconclusive: 1.16 µM [inhibitor, partial curve, poor fit]	
COC(=O)c1c(NS(=O)(=O)Cc2ccccc2)sc2c1CCCC2	inactive	
COc1ccc(Nc2nc(C)c(-c3ccccc3)s2)cc1	inconclusive: 14.6 µM [activator, partial curve]	
CCc1nc(NC(C)(C)C)c2cnn(-c3ccccc3)c2n1	inconclusive: 18.3 µM [activator, partial curve]	
COc1ccc(NC(=O)CN(C)C(=O)/C=C/c2cn(Cc3ccccc3)nc2-c2cccnc2)cc1	inconclusive: 25.9 µM [inhibitor, single point]	
O=C(CNC(=O)c1ccncc1)N/N=C/c1cc(Br)ccc1OCc1ccccc1	inconclusive: 23.1 µM [inhibitor, partial curve]	
CCOC(=O)C1=C(C)NC(C)=C(C(=O)OCC)C1C(=O)OCC(=O)N1CCc2ccccc21		inconclusive: 8.25% [activator]
Cc1ccccc1N=Nc1ccc(O)c2ncccc12	inconclusive: 4.11 µM [activator, single point]	
COC(=O)c1ccc(COC(=O)c2ccc(N(C)C)cc2)cc1	inactive	
Cc1cccc(C(=O)NC(NC(=S)Nc2ccc(S(N)(=O)=O)cc2)C(Cl)(Cl)Cl)c1 (stereo not given)	inconclusive: 11.6 µM [activator, partial curve, poor fit]	
O=C(O)c1ccccc1/C=N/Nc1nc(N2CCCCC2)nc(N2CCCCC2)n1	inactive	
O=C(Oc1ccc(Cl)c2cccnc12)N1CCCCC1	inconclusive: 9.2 µM [activator, partial curve, poor fit]	
CC(C)n1cnc2c(oc3ccccc32)c1=O	inconclusive: 16.4 µM [activator, partial curve, poor fit]	
Cc1cccc2c(CCNC(=O)c3ccc([N+](=O)[O-])cc3)c[nH]c12	inconclusive: 32.6 µM [inhibitor, single point]	
CC(=O)Nc1ccc(S(=O)(=O)N2CCC(c3nc4ccc(C)cc4[nH]3)CC2)cc1	inconclusive: 20.6 µM [inhibitor, partial curve]	
CC(=O)c1cccc(OCc2cc(C(=O)N3CCSCC3)no2)c1	inconclusive: 10.3 µM [activator, partial curve]	
CC/C(=N\NC(=O)c1cc(C2CC2)[nH]n1)c1ccccc1	inconclusive: 25.9 µM [activator, single point]	
CC1=C(C(=O)OCC(C)C)C(c2ccccc2Cl)NC(=O)N1C (stereo not given)	inconclusive: 18.4 µM [inhibitor, partial curve, poor fit]	
CCCCC(CC)C(=O)N1CCN(C(=O)c2ccco2)CC1 (stereo not given)	inactive	
Cc1ccc2nc(C(F)C(F)(F)F)[nH]c2c1 (stereo not given)	inconclusive: 20.6 µM [activator, single point]	
CC(OC(=O)c1cccnc1Cl)C(=O)NCc1ccccc1 (stereo not given)	inactive	

Some of the entries so far, field by field:
Cc1cccc(C(=O)NC(NC(=S)Nc2ccc(S(N)(=O)=O)cc2)C(Cl)(Cl)Cl)c1 (stereo not given)
  Potency: inconclusive: 11.6 µM [activator, partial curve, poor fit]
O=C(O)c1ccccc1/C=N/Nc1nc(N2CCCCC2)nc(N2CCCCC2)n1
  Potency: inactive
O=C(Oc1ccc(Cl)c2cccnc12)N1CCCCC1
  Potency: inconclusive: 9.2 µM [activator, partial curve, poor fit]

Remaining list, next part.

Compound	Potency	activity change, negative = inhibition
CN(C)S(=O)(=O)c1ccc(NC(=O)/C=C/c2ccccc2Cl)cc1	inactive	
CC(C)CNC(=S)NC1CC2CCCC(C1)N2Cc1ccco1 (stereo not given)	inactive	
Nc1ncnc(Nc2ccc(F)c(Cl)c2)n1	inconclusive: 10.3 µM [activator, partial curve]	
OCC1(Cc2ccccc2)CCN(Cc2cnc(-c3cccc4ccccc34)nc2)CC1	inactive	
Cc1ccccc1-c1cc(C(=O)n2cccn2)c2cc(Cl)ccc2n1	inactive	
C=CCn1c(-c2cccnc2)n[nH]c1=S	inactive	
COc1cc2c(cc1OC)C(c1ccc(-c3ccccc3Cl)o1)=NCC2	inconclusive: 29.1 µM [inhibitor, single point]	
COc1ccc(NC(=O)Nc2ccc(N(C)C)cc2)cc1	inconclusive: 9.2 µM [activator, partial curve]	
COc1ccc(CNC(=O)COC(=O)c2ccc(C(=O)c3ccccc3)cc2)cc1	inactive	
COc1ccc(NC(=O)Nc2nnc(Cc3ccc(F)cc3)s2)cc1	inconclusive: 13 µM [activator, partial curve, poor fit]	
CCc1cccc2c(C(=O)CN3C(=O)C(=O)N(C4CCCC4)C3=O)c[nH]c12	inactive	
O=C(CSc1nnc(-c2cccc(Cl)c2)o1)Nc1ccc2c(c1)OCCO2	inconclusive: 18.4 µM [activator, partial curve]	
O=C(Nc1cccc(F)c1)c1ccc(-c2ccccc2Cl)o1	inconclusive: 3.66 µM [activator, partial curve]	
COc1ccc(/C=N/Nc2nc(C(=O)O)cs2)cc1	inconclusive: 2.59 µM [activator, partial curve]	
O=C(O)CC(Cn1[nH]nnc1=S)c1ccccc1 (stereo not given)	inconclusive: 1.16 µM [activator, single point]	
O=[N+]([O-])c1ccc(N2CCCCCC2)c(S(=O)(=O)N2CCCCC2)c1	inactive	
COC(=O)c1cc(COc2ccc3ccc(=O)oc3c2)c(C)o1	inconclusive: 29.1 µM [activator, single point]	
CCOC(=O)NC(Nc1ccc(S(N)(=O)=O)cc1)(C(=O)OCC)C(F)(F)F (stereo not given)	inconclusive: 5.17 µM [inhibitor, partial curve, poor fit]	
CCCCSC(=S)NC1CCS(=O)(=O)C1 (stereo not given)	inconclusive: 20.6 µM [inhibitor, single point]	
CCOc1ccc(OCC)c(NC(=O)C2CCCN(c3nc(C)cc(C)n3)C2)c1 (stereo not given)	inconclusive: 14.6 µM [inhibitor, single point]	
O=C1c2ccccc2NC(c2ccccc2Cl)N1N=C1CCCCCC1 (stereo not given)	inconclusive: 20.6 µM [activator, partial curve]	
CCOC(=O)c1ccc2[nH]c3ccccc3c2c1	inconclusive: 23.1 µM [activator, single point]	

— PubChem BioAssay AID504467 (National Center for Advancing Translational Sciences (NCATS), 2011)
